# ± gives the standard deviation of the averaged measurements. This is a selection; strong and weak results do not stand in their true shares.
# Amino acid sequences for entries named in this document (tags omitted). A change or cut given only in a name is not applied to a line headed by its entry.
# UniProt P63241: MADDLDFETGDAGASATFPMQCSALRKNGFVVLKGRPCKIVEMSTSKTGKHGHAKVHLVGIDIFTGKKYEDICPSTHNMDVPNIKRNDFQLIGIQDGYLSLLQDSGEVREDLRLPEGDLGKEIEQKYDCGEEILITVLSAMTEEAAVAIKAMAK
# UniProt O75880: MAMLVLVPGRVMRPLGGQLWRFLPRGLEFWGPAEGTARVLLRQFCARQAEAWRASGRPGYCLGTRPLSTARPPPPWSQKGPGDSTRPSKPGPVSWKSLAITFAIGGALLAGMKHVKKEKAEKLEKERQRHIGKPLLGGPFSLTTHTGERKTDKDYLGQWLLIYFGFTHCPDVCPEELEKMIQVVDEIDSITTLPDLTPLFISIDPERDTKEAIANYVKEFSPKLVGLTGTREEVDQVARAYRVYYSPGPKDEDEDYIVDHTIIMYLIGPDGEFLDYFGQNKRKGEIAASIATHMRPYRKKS
# UniProt O75674: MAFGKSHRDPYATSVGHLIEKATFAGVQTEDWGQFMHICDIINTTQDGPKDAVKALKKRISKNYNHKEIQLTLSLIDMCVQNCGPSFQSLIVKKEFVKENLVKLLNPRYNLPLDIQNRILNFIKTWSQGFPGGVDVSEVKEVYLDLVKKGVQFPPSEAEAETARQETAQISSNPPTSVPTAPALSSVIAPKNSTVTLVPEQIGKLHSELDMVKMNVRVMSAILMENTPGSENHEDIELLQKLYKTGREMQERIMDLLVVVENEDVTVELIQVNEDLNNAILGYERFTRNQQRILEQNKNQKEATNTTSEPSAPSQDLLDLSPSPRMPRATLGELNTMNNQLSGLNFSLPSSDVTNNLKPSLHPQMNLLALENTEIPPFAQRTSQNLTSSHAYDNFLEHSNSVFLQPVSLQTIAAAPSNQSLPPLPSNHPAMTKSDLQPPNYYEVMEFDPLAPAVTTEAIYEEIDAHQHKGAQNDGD
# UniProt Q99611, whole entry: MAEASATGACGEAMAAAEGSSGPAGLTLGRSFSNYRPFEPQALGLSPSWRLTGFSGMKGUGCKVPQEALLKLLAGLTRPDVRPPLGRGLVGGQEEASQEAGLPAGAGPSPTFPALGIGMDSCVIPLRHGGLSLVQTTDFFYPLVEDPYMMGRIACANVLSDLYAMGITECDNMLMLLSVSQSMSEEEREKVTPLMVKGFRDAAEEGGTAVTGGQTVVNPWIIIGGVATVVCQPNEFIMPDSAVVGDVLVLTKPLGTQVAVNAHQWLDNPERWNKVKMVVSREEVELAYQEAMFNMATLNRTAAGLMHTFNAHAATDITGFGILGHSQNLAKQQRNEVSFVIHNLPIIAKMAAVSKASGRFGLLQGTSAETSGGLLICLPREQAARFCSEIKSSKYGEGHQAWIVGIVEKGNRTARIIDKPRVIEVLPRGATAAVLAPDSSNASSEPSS
# UniProt Q9BQE5: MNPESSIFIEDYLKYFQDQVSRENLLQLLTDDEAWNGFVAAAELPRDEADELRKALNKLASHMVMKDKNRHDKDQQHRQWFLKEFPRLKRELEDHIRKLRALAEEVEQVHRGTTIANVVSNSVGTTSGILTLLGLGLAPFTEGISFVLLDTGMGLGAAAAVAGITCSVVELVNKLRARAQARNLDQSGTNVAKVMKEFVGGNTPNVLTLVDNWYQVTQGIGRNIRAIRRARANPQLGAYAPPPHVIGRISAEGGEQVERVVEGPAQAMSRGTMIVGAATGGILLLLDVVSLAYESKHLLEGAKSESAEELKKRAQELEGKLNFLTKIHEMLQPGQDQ
# UniProt Q9NVX0: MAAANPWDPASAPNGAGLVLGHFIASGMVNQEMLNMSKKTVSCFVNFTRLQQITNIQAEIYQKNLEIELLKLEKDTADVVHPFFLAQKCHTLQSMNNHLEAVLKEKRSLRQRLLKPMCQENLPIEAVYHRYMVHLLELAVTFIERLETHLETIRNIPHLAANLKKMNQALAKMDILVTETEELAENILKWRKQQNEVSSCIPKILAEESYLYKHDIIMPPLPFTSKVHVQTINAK
# UniProt Q15027: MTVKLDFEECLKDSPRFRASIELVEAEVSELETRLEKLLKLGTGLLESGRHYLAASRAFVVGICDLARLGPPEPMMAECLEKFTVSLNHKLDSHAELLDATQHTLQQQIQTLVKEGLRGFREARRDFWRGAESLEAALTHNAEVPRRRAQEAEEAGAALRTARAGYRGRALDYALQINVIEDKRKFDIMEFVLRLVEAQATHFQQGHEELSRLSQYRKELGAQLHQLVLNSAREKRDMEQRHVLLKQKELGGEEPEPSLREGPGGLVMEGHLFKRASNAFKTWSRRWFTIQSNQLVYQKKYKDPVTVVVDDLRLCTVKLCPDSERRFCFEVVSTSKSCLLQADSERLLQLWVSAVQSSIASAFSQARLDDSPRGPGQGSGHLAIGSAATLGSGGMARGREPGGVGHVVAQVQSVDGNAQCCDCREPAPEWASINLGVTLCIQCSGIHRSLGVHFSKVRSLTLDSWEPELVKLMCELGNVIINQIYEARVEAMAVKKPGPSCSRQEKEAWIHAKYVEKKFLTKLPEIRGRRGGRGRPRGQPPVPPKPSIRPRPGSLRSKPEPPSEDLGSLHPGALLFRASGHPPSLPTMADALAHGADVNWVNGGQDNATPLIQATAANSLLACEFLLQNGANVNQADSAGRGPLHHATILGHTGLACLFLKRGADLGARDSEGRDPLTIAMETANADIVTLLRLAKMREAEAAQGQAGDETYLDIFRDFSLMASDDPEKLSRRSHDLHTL
# UniProt P12829: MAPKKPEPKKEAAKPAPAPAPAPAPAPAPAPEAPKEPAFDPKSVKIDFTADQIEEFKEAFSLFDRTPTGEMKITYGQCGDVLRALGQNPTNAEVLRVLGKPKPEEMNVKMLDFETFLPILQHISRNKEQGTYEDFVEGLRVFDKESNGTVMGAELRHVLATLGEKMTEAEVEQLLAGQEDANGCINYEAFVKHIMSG
# UniProt Q96J42: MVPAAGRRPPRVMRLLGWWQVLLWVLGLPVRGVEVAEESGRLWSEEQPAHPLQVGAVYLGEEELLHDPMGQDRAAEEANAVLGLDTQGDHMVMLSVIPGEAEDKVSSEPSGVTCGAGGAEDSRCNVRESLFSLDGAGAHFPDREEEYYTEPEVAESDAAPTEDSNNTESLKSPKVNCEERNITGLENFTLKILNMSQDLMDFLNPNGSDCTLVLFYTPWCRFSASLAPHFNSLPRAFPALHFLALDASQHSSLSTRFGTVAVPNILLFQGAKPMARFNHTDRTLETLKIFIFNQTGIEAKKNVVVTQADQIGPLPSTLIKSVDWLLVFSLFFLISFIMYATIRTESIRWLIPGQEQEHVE
# UniProt P19105: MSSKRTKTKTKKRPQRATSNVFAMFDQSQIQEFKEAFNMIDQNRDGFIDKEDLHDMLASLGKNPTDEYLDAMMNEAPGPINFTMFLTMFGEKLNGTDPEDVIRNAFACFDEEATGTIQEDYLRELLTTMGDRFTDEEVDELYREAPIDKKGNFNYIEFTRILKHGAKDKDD
# UniProt O14950, whole entry, looked up: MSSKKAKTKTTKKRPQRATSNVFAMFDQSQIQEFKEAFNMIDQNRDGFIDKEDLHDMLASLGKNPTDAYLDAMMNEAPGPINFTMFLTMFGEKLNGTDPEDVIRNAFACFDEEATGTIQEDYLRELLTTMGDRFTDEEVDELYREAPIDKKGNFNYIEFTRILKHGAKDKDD
# UniProt Q9BSJ5: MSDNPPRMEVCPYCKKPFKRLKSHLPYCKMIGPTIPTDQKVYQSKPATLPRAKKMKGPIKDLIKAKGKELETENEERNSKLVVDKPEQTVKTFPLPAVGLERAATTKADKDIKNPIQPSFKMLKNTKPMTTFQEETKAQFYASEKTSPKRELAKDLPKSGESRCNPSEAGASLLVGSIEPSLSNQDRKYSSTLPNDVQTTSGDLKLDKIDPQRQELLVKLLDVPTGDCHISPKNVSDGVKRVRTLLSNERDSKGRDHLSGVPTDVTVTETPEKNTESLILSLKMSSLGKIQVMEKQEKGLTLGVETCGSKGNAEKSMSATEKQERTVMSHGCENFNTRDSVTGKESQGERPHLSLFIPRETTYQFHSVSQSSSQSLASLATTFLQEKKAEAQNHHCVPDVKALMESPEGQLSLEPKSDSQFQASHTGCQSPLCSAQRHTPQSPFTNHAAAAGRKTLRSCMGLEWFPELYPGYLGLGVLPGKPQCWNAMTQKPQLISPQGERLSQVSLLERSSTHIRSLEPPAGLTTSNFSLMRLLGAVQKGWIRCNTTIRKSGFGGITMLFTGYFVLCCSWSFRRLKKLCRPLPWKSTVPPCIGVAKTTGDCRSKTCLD
# UniProt P78364: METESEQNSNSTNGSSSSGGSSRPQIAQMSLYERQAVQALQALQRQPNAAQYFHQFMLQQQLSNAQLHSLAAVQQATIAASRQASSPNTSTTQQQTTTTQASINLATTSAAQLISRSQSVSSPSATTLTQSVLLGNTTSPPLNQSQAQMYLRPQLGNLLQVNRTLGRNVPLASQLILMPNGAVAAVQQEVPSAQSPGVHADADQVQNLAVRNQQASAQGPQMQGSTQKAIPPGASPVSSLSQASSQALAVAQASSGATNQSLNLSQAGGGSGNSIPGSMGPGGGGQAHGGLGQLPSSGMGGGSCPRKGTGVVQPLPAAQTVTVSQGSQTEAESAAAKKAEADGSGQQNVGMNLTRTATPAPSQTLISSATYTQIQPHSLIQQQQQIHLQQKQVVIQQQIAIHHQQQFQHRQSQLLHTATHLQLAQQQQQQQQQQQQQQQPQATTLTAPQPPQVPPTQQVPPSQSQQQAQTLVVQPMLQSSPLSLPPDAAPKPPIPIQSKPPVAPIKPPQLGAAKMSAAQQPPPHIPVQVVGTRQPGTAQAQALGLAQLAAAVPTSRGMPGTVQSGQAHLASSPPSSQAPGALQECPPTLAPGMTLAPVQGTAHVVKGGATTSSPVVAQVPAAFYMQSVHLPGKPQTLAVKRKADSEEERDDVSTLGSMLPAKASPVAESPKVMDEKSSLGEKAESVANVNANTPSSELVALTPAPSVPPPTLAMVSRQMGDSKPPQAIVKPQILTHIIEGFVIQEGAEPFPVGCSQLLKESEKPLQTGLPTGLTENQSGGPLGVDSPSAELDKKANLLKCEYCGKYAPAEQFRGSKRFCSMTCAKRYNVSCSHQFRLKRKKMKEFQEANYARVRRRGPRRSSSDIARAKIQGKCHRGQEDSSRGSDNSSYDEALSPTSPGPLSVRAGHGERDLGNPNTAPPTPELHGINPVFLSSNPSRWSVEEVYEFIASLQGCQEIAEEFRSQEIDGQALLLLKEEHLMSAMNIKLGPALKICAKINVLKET
# UniProt Q8WVC6: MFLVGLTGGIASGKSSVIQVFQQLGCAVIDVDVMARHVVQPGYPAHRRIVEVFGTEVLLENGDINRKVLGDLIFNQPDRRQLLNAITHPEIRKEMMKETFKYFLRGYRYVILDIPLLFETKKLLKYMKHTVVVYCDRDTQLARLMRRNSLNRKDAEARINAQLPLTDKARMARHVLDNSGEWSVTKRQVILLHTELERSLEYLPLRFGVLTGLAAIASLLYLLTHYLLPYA
# UniProt Q96B54: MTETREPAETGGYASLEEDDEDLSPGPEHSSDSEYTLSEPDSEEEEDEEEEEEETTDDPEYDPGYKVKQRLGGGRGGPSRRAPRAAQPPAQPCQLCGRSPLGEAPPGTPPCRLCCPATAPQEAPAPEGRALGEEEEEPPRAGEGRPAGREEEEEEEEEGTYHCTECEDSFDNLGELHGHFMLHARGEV
# Compound: Nc1ncnc2c1ncn2[C@@H]1O[C@H](COP(=O)(O)OP(=O)(O)OP(=O)(O)O)[C@@H](O)[C@H]1O [adenosine triphosphate]
# Experiment: NP40-soluble protein abundance relative to vehicle (solubility fold change) (ratio); higher = more soluble protein in presence of ATP
# Method in brief: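 Jurkat crude lysate (Dounce-homogenised) was treated with eight concentrations from 0.1 to 10 mM for 10 min at room temperature, then 3 min at 37 °C. It was solubilised with 0.8% NP40 and benzonase (60 min, 4 °C) and ultracentrifuged, and the supernatant was TMT-labelled for LC-MS/MS. Intensities were vsn-normalised, and the value is the fold change against the NP40-processed vehicle per replicate, from three independent experiments.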
Target,NP40-soluble protein abundance (concentration: 1mM),NP40-soluble protein abundance (concentration: 2mM),NP40-soluble protein abundance (concentration: 4mM),NP40-soluble protein abundance (concentration: 6mM),NP40-soluble protein abundance (concentration: 8mM),NP40-soluble protein abundance (concentration: 10mM)
I3L397 and related entries (UniProt P63241),0.89 ± 0.1,0.875 ± 0.1,0.852 ± 0.089,0.86 ± 0.13,0.869 ± 0.1,0.866 ± 0.12
J3QL56 and related entries (UniProt O75880),0.822 ± 0.031,0.879 ± 0.08,0.806 ± 0.12,0.82 ± 0.049,0.785 ± 0.1,0.857 ± 0.03
I3L4I4 and related entries (UniProt O75674),0.903 ± 0.029,0.8481 ± 0.0066,0.899 ± 0.11,1.02 ± 0.019,0.929 ± 0.055,0.935 ± 0.044
J3KR58 and related entries (UniProt Q99611),1.02 ± 0.016,1.02 ± 0.055,0.992 ± 0.066,0.964 ± 0.016,0.995 ± 0.067,1 ± 0.015
J3KQL8 (UniProt Q9BQE5),0.966 ± 0.027,0.973 ± 0.02,0.959 ± 0.035,0.977 ± 0.014,0.942 ± 0.029,0.941 ± 0.028
H3BP16 and related entries (UniProt Q9NVX0),1.02 ± 0.02,1.01 ± 0.026,1.04 ± 0.017,0.974 ± 0.056,1.06 ± 0.03,0.996 ± 0.058
I3L0K9 and related entries (UniProt Q15027),1.03 ± 0.095,1.03 ± 0.089,1.01 ± 0.057,0.959 ± 0.11,1.01 ± 0.036,1.01 ± 0.061
H0Y9X1 and related entries (UniProt Q96EY4),0.932 ± 0.1,0.943 ± 0.052,1.02 ± 0.09,1.22 ± 0.085,1.28 ± 0.062,1.41 ± 0.085
I3L1K6 and related entries (UniProt P12829),0.984 ± 0.15,0.977 ± 0.13,0.999 ± 0.17,1.02 ± 0.21,0.969 ± 0.13,0.899 ± 0.092
H0Y997 and related entries (UniProt Q96J42),0.823 ± 0.015,0.935 ± 0.036,0.86 ± 0.12,0.906 ± 0.066,0.844 ± 0.02,0.813 ± 0.053
J3QRS3 and related entries (UniProt P19105+O14950+J3QRS3),0.966 ± 0.1,0.917 ± 0.071,0.875 ± 0.08,0.927 ± 0.11,0.877 ± 0.033,0.76 ± 0.089
I3L072 and related entries (UniProt Q9BSJ5),0.939 ± 0.094,0.962 ± 0.048,0.963 ± 0.14,1.01 ± 0.17,0.977 ± 0.17,0.96 ± 0.1
J3KQH6 and related entries (UniProt P78364),0.949 ± 0.032,0.992 ± 0.084,0.999 ± 0.026,1.14 ± 0.13,1.04 ± 0.045,1.18 ± 0.043
K7ESP4 and related entries (UniProt Q8WVC6),1.24 ± 0.12,1.26 ± 0.055,1.24 ± 0.059,1.25 ± 0.15,1.24 ± 0.026,1.23 ± 0.077
M0QXZ5 and related entries (UniProt Q96B54),0.971 ± 0.039,0.963 ± 0.016,1.04 ± 0.012,1.047 ± 0.0072,0.942 ± 0.12,0.971 ± 0.062

# Complete entries, quoted from the list. Values in the order: NP40-soluble protein abundance (concentration: 1mM) | NP40-soluble protein abundance (concentration: 2mM) | NP40-soluble protein abundance (concentration: 4mM) | NP40-soluble protein abundance (concentration: 6mM) | NP40-soluble protein abundance (concentration: 8mM) | NP40-soluble protein abundance (concentration: 10mM)
# M0QXZ5 and related entries (UniProt Q96B54) is listed as 0.971 ± 0.039 | 0.963 ± 0.016 | 1.04 ± 0.012 | 1.047 ± 0.0072 | 0.942 ± 0.12 | 0.971 ± 0.062
# J3KQH6 and related entries (UniProt P78364) is listed as 0.949 ± 0.032 | 0.992 ± 0.084 | 0.999 ± 0.026 | 1.14 ± 0.13 | 1.04 ± 0.045 | 1.18 ± 0.043
